In PubChem BioAssay AID220 (DTP/NCI, 2004):
The list is a part of this screen's results and no random one: it is rich in T/C values a quarter to a half above the control, in often repeated tests (any T/C) and in doses without a T/C. Other doses and runs of a compound stand elsewhere. T/C gives the treated animals as a percentage of the vehicle group. Schedules are NCI's codes, taken here to give the interval after Q, in days (D) or hours (H), and the number of doses after X. Some entries were tested several times; the values are given in rising order. Some T/C values are followed by the survivors on the day toxicity was checked, most often the fifth; where none is given, no animal had died by that day. Some entries give survivors of the animals treated and no T/C: the source files T/C as zero there, which appears to mark a toxic dose or a test without result, not a measured value. Counts of survivors are from the toxicity check (mostly the fifth day) where no day follows; animals may have died later. Residues, ends and D or L forms follow the SMILES beside them. *: point of attachment. Trt = c1ccc(C(c2ccccc2)(c2ccccc2)*)cc1; Cbz = O=C(OCc1ccccc1)*

System: CD8F1 mice, subcutaneous mammary adenocarcinoma, T/C%
Assay: NCI In Vivo Anticancer Drug Screen. Data for tumor model Mammary Adenocarcinoma CD8F1 (subcutaneous) in CD8F1
Details: higher T/C = larger tumour
In short: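 Transplantable tumors were established in mice, animals were dosed with compound or vehicle, and survival or tumor size was then measured in both groups. The treated result was divided by the control result.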

[1] = T/C endpoint: median tumor weight change, dose: 500.0 mg/kg/injection, schedule: Q01DX001 (ip), vehicle: Klucel (hydroxypropylcellulose) (HPC)
[2] = T/C endpoint: median tumor weight change, dose: 1000.0 mg/kg/injection, schedule: Q01DX001 (ip), vehicle: Klucel (hydroxypropylcellulose) (HPC)

Compound: Nc1nc(N)c2c(ccc3c2ccn3Cc2cccc([N+](=O)[O-])c2)n1
- T/C (T/C endpoint: median tumor weight change, dose: 7.8 mg/kg/injection, schedule: Q01DX001 (ip), vehicle: saline with Tween-80, evaluated on day 29): 117 % of control
- T/C (T/C endpoint: median tumor weight change, dose: 7.8 mg/kg/injection, schedule: Q01DX001 (ip), vehicle: saline with Tween-80, evaluated on day 30): 97 % of control
- T/C (T/C endpoint: median tumor weight change, dose: 7.8 mg/kg/injection, schedule: Q01DX001 (ip), vehicle: saline with Tween-80, evaluated on day 34): 44 % of control
- T/C (T/C endpoint: median tumor weight change, dose: 7.8 mg/kg/injection, schedule: Q01DX001 (ip), vehicle: saline with Tween-80, evaluated on day 36): 107 % of control
- T/C (T/C endpoint: median tumor weight change, dose: 15.5 mg/kg/injection, schedule: Q01DX001 (ip), vehicle: saline with Tween-80, evaluated on day 29): 128 % of control
- T/C (T/C endpoint: median tumor weight change, dose: 15.5 mg/kg/injection, schedule: Q01DX001 (ip), vehicle: saline with Tween-80, evaluated on day 30): 54 % of control
- T/C (T/C endpoint: median tumor weight change, dose: 15.5 mg/kg/injection, schedule: Q01DX001 (ip), vehicle: saline with Tween-80, evaluated on day 34): 50 % of control
- T/C (T/C endpoint: median tumor weight change, dose: 15.5 mg/kg/injection, schedule: Q01DX001 (ip), vehicle: saline with Tween-80, evaluated on day 36): 39 and 96 % of control
- T/C (T/C endpoint: median tumor weight change, dose: 31.0 mg/kg/injection, schedule: Q01DX001 (ip), vehicle: saline with Tween-80, evaluated on day 28): 47 % of control
- T/C (T/C endpoint: median tumor weight change, dose: 31.0 mg/kg/injection, schedule: Q01DX001 (ip), vehicle: saline with Tween-80, evaluated on day 29): 84 % of control
- T/C (T/C endpoint: median tumor weight change, dose: 31.0 mg/kg/injection, schedule: Q01DX001 (ip), vehicle: saline with Tween-80, evaluated on day 30): 86 % of control
- T/C (T/C endpoint: median tumor weight change, dose: 31.0 mg/kg/injection, schedule: Q01DX001 (ip), vehicle: saline with Tween-80, evaluated on day 34): 52 % of control
- T/C (T/C endpoint: median tumor weight change, dose: 31.0 mg/kg/injection, schedule: Q01DX001 (ip), vehicle: saline with Tween-80, evaluated on day 36): 40 [9 of 10 alive on day 36] and 90 % of control
- T/C (T/C endpoint: median tumor weight change, dose: 62.0 mg/kg/injection, schedule: Q01DX001 (ip), vehicle: saline with Tween-80, evaluated on day 28): 16 % of control [9 of 10 alive on day 28]
- T/C (T/C endpoint: median tumor weight change, dose: 62.0 mg/kg/injection, schedule: Q01DX001 (ip), vehicle: saline with Tween-80, evaluated on day 29): 41 % of control [7 of 10 alive on day 29]
- T/C (T/C endpoint: median tumor weight change, dose: 62.0 mg/kg/injection, schedule: Q01DX001 (ip), vehicle: saline with Tween-80, evaluated on day 30): 47 % of control [9 of 10 alive on day 30]
- T/C (T/C endpoint: median tumor weight change, dose: 62.0 mg/kg/injection, schedule: Q01DX001 (ip), vehicle: saline with Tween-80, evaluated on day 34): 39 % of control
- T/C (T/C endpoint: median tumor weight change, dose: 62.0 mg/kg/injection, schedule: Q01DX001 (ip), vehicle: saline with Tween-80, evaluated on day 36): 23 % of control
- survivor count (T/C endpoint: median tumor weight change, dose: 124.0 mg/kg/injection, schedule: Q01DX001 (ip), vehicle: saline with Tween-80): 0 of 10 on day 30, 3 of 10 on day 29, 3 of 10 on day 36, 4 of 10 on day 34, 6 of 10 on day 36

Compound: CN(C)CCN1C(=O)c2cccc3cc(N)cc(c23)C1=O
- T/C (T/C endpoint: median tumor weight change, dose: 10.0 mg/kg/injection, schedule: Q01DX001 (ip), vehicle: saline with Tween-80, evaluated on day 29): 139 % of control
- survivor count (T/C endpoint: median tumor weight change, dose: 80.0 mg/kg/injection, schedule: Q01DX001 (ip), vehicle: saline with Tween-80): 5 of 10 on day 30
- survivor count (T/C endpoint: median tumor weight change, dose: 160.0 mg/kg/injection, schedule: Q01DX001 (ip), vehicle: saline with Tween-80): 0 of 10 on day 28, 0 of 10 on day 29, 2 of 10 on day 30

Compound: COc1cc2c[n+](C)c3c4cc5c(cc4ccc3c2cc1OC)OCO5
- T/C (T/C endpoint: median tumor weight (est.), dose: 20.0 mg/kg/injection, schedule: Q07DX005 (ip), vehicle: saline with Tween-80, evaluated on day 30): 129 % of control
- survivor count (T/C endpoint: median tumor weight (est.), dose: 160.0 mg/kg/injection, schedule: Q07DX005 (ip), vehicle: saline with Tween-80): 1 of 10 on day 30
- survivor count (T/C endpoint: median tumor weight (est.), dose: 320.0 mg/kg/injection, schedule: Q07DX005 (ip), vehicle: saline with Tween-80): 0 of 10 on day 30

Compound: CC1(O)CC23CC(O)C4(O)C(CC(O)C4(C)C)C(C)(O)C2CCC1C3O (configuration not stated)
- survivor count (T/C endpoint: median tumor weight change, dose: 1.0 mg/kg/injection, schedule: Q01DX001 (ip), vehicle: Klucel (hydroxypropylcellulose) (HPC)): 4 of 10 on day 42
- survivor count (T/C endpoint: median tumor weight change, dose: 2.0 mg/kg/injection, schedule: Q01DX001 (ip), vehicle: Klucel (hydroxypropylcellulose) (HPC)): 0 of 10 on day 42
- survivor count (T/C endpoint: median tumor weight change, dose: 4.0 mg/kg/injection, schedule: Q01DX001 (ip), vehicle: Klucel (hydroxypropylcellulose) (HPC)): 1 of 10 on day 42

Compound: NC(CCl)=NCC12CC3CC(CC(C3)C1)C2
- T/C (T/C endpoint: median tumor weight (est.), dose: 25.0 mg/kg/injection, schedule: Q07DX005 (ip), vehicle: Klucel (hydroxypropylcellulose) (HPC), evaluated on day 32): 146 % of control

Compound: COC(=O)C(CSC(c1ccccc1)(c1ccccc1)c1ccccc1)NC(=O)C(CC(N)=O)NC(=O)OCc1ccccc1 (stereo not drawn) (Cbz-Asn-Cys(Trt)-OMe; configuration not given here)
- T/C (T/C endpoint: median tumor weight change, dose: 500.0 mg/kg/injection, schedule: Q01DX001 (ip), vehicle: distilled water + Tween-80, evaluated on day 28): 148 % of control

Compound: Cc1cccc(-[n+]2noc(N)n2)c1
- survivor count (T/C endpoint: median tumor weight change, dose: 250.0 mg/kg/injection, schedule: Q01DX001 (ip), vehicle: water): 0 of 10 on day 30
- survivor count (T/C endpoint: median tumor weight change, dose: 500.0 mg/kg/injection, schedule: Q01DX001 (ip), vehicle: water): 0 of 10 on day 30
- survivor count (T/C endpoint: median tumor weight change, dose: 1000.0 mg/kg/injection, schedule: Q01DX001 (ip), vehicle: water): 0 of 10 on day 30

Compound: CN(C)CC(Cl)CCl (configuration not stated)
- T/C (T/C endpoint: mean tumor weight, dose: 50.0 mg/kg/injection, schedule: Q07DX006 (ip), vehicle: saline, evaluated on day 42): 135 % of control
- survivor count (T/C endpoint: median tumor weight (est.), dose: 400.0 mg/kg/injection, schedule: Q07DX005 (ip), vehicle: saline): 0 of 6 on day 30

Compound: O=C(Nc1ccccc1C(=O)O)c1cc([N+](=O)[O-])cc([N+](=O)[O-])c1
- survivor count (T/C endpoint: median tumor weight change, dose: 500.0 mg/kg/injection, schedule: Q01DX001 (ip), vehicle: saline with Tween-80): 0 of 10 on day 26
- survivor count (T/C endpoint: median tumor weight change, dose: 1000.0 mg/kg/injection, schedule: Q01DX001 (ip), vehicle: saline with Tween-80): 0 of 10 on day 26
- survivor count (T/C endpoint: median tumor weight change, dose: 2000.0 mg/kg/injection, schedule: Q01DX001 (ip), vehicle: saline with Tween-80): 0 of 10 on day 26

Compound: CC(=O)CC(=O)CCC(=O)O
- T/C (T/C endpoint: median tumor weight change, dose: 62.5 mg/kg/injection, schedule: Q01DX001 (ip), vehicle: saline, evaluated on day 32): 142 % of control
- survivor count (T/C endpoint: median tumor weight change, dose: 500.0 mg/kg/injection, schedule: Q01DX001 (ip), vehicle: saline): 4 of 10 on day 32
- survivor count (T/C endpoint: median tumor weight change, dose: 1000.0 mg/kg/injection, schedule: Q01DX001 (ip), vehicle: saline): 0 of 10 on day 32

Compound: N/C(=N\OC(=O)Nc1ccc(CSc2ccc(Cl)cc2)o1)c1ccccn1
- survivor count [1]: 0 of 10 on day 28
- survivor count [2]: 0 of 10 on day 28

Compound: O=c1nc(Oc2ccccc2)nc2ncccn12
- survivor count (T/C endpoint: median tumor weight (est.), dose: 200.0 mg/kg/injection, schedule: Q07DX005 (ip), vehicle: saline with Tween-80): 3 of 10 on day 32

Compound: O=c1nc(-c2ccco2)sc(=O)[nH]1
- survivor count [1]: 0 of 10 on day 28
- survivor count [2]: 0 of 10 on day 28

Compound: CC1=C2CC(C)(C)/C=C\C(=O)/C(C)=C\C3=C[C@H](C)C[C@]3(O2)C1=O
- T/C (T/C endpoint: median tumor weight (est.), dose: 3.0 mg/kg/injection, schedule: Q07DX005 (ip), vehicle: saline, evaluated on day 30): 145 % of control
- T/C (T/C endpoint: median tumor weight (est.), dose: 24.0 mg/kg/injection, schedule: Q07DX005 (ip), vehicle: saline, evaluated on day 30): 130 % of control

Compound: C[n+]1c(-c2cccc(OCCOCCOc3cccc(-c4c5cc(N)ccc5c5ccc(N)cc5[n+]4C)c3)c2)c2cc(N)ccc2c2ccc(N)cc21
- T/C (T/C endpoint: median tumor weight change, dose: 20.0 mg/kg/injection, schedule: Q01DX001 (ip), vehicle: water, evaluated on day 41): 139 % of control
- survivor count (T/C endpoint: median tumor weight change, dose: 80.0 mg/kg/injection, schedule: Q01DX001 (ip), vehicle: water): 6 of 10 on day 41

Compound: O=c1ssc(=Nc2ccccc2)n1-c1ccccc1
- survivor count (T/C endpoint: median tumor weight (est.), dose: 800.0 mg/kg/injection, schedule: Q07DX005 (ip), vehicle: Klucel (hydroxypropylcellulose) (HPC)): 4 of 10 on day 30

Compound: COC1/C=C/C=C(/C)Cc2cc(O)c(Cl)c(c2)N(C)C(=O)CC(OC(=O)C(C)C)C2(C)OC2C(C)C2CC1(O)NC(=O)O2 (configuration not stated)
- survivor count (T/C endpoint: median tumor weight change, dose: 20.0 mg/kg/injection, schedule: Q01DX001 (ip), vehicle: saline + alcohol): 0 of 10 on day 31
